The values that follow come from PubChem BioAssay AID258 (DTP/NCI, 2004).

The list is a part of this screen's results and no random one: it gathers some chemical classes. Other doses and runs of a compound may be missing. T/C: endpoint of the treated group in % of that of the vehicle group. Where survival is the endpoint, this PubChem deposit counts one and a half times the control or more as active, and values a quarter to a half above the control carry no call in these data; other NCI protocols may use other cut-offs. Some entries show no survivor count and are marked so; the dose need not have been tolerated. Schedule codes are those of the source, taken here to give the interval after Q, in days (D) or hours (H), and the number of doses after X. Some schedule codes hold Z or #, which are not explained here.

In the assay the test system is CD2F1 mice, L1210 leukemia sc, survival T/C. Nature of the assay: NCI In Vivo Anticancer Drug Screen. Data for tumor model L1210 Leukemia (subcutaneous) in CD2F1 (CDF1) mice. Conditions: T/C endpoint: median survival time, schedule: Q01DX Z (sc), vehicle: methylcellulose (MC), higher T/C = longer survival. The method, then: The antitumor activity of compounds was measured in mice bearing transplantable tumors. Survival or tumor size were measured and the results are expressed as the measurement made in the treated group (T) divided by the measurement made in the vehicle treated control group (C). The tumor model used in this assay is L1210 Leukemia (subcutaneous) in CD2F1 (CDF1) mice

In the case of `Cc1cc2nc(CN(CCCl)CCCl)[nH]c2cc1C`, the T/C by setting is: (dose: 23.0 mg/kg/injection) 116 % of control [survivor count not shown]; (dose: 39.0 mg/kg/injection) 133 % of control [survivor count not shown]; (dose: 65.0 mg/kg/injection) 133 % of control [survivor count not shown]; (dose: 108.0 mg/kg/injection) 108 % of control [survivor count not shown]; (dose: 180.0 mg/kg/injection) 91 % of control [survivor count not shown].
